Assay results from paper PMC2642630.
Results are given in words; binding and its absence hold for the method and conditions named. In cells and extracts the contact can be indirect. Some binding calls cover weakened binding; strength is not graded here.

The chains behind the UniProt entries cited, without tags or fusion partners. Residues count along the entry.
UniProt B6KJ32, residues 27-984: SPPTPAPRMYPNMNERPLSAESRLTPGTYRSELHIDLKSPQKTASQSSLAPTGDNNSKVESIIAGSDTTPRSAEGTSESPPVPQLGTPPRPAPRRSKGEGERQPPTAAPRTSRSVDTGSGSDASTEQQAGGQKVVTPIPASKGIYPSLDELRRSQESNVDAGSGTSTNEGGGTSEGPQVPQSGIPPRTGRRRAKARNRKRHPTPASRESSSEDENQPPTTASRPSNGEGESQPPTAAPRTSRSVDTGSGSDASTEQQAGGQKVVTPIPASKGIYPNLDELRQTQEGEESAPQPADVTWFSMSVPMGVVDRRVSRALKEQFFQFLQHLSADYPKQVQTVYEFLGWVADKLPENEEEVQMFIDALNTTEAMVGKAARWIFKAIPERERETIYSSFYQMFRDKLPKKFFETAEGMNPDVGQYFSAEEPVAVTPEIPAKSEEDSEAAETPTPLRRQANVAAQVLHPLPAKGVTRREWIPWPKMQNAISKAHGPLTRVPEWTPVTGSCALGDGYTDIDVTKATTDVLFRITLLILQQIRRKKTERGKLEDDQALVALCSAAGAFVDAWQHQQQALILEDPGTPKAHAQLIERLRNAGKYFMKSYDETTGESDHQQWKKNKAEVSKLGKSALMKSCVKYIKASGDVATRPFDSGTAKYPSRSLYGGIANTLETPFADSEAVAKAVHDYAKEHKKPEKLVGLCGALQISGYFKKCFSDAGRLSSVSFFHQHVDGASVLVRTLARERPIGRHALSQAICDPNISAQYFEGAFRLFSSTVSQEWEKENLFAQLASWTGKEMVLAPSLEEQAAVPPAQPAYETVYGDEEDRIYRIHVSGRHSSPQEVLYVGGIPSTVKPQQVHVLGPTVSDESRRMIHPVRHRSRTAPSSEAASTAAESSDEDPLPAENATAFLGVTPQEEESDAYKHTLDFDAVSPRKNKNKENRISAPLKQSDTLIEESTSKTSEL
UniProt B6KV60, residues 25-1479: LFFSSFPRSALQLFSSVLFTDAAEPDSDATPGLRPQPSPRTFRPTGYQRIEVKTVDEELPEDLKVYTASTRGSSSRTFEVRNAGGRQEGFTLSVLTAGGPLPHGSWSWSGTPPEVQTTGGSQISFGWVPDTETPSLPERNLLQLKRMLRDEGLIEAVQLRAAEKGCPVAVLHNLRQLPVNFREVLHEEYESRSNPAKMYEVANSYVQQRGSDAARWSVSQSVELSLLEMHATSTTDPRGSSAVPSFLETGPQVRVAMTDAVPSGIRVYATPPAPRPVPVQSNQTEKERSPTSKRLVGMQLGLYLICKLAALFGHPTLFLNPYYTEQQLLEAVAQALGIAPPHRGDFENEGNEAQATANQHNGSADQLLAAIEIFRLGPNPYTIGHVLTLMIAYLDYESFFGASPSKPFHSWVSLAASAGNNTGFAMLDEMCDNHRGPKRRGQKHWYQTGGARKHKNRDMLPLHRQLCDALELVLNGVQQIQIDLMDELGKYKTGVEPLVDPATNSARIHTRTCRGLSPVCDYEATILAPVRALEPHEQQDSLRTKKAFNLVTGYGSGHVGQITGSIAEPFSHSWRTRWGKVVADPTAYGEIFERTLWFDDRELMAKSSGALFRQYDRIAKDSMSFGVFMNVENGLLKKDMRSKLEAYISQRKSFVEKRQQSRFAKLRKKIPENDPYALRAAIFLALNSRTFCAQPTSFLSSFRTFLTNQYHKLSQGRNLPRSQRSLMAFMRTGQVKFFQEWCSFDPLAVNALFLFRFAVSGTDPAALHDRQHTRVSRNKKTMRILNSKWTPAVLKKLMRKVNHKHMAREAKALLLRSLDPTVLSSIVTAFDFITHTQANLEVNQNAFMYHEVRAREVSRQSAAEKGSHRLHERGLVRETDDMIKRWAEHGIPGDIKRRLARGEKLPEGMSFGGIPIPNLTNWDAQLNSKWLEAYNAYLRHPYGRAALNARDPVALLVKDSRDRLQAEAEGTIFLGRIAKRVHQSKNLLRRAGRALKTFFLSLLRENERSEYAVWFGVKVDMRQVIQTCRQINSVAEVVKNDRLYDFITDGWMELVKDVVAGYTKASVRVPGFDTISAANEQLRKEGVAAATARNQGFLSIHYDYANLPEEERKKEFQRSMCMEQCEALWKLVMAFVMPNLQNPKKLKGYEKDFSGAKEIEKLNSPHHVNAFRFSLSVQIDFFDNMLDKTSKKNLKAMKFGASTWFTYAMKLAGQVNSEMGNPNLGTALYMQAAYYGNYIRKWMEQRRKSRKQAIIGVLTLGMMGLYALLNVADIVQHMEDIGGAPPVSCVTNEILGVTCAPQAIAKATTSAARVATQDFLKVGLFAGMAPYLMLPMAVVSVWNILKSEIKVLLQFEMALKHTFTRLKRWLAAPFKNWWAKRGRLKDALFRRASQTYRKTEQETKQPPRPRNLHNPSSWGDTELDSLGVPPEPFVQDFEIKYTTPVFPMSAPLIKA

Columns and labels:
[1] = target: RON4 (Toxoplasma gondii (endogenous in RH hxgprt- tachyzoites)) (UniProt B6KJ32); experiment: co-IP; 1% NP40 and 1 M NaCl; affinity chromatography with either of the specific anti-RONs; data not shown
[2] = target: RON4 (Toxoplasma gondii (endogenous in RH hxgprt- tachyzoites)) (UniProt B6KJ32); experiment: co-IP; intracellular parasites labelled with [35S]-methionine/cysteine for 15 min, harvested or chased 1 h, with or without BFA (5 µg/ml); lysis in 1% NP40; IP; SDS-PAGE and autoradiography
[3] = target: RON4 (Toxoplasma gondii (endogenous in RH hxgprt- tachyzoites)) (UniProt B6KJ32); experiment: co-IP; tachyzoites lysed in 1% NP40; IP or immuno-affinity column with anti-RON sera; Western blot in reduced condition
[4] = target: proRON4 (Toxoplasma gondii (endogenous in RH hxgprt- tachyzoites)) (UniProt B6KJ32); experiment: co-IP; intracellular parasites labelled with [35S]-methionine/cysteine for 15 min, harvested or chased 1 h, with or without BFA (5 µg/ml); lysis in 1% NP40; IP; SDS-PAGE and autoradiography
[5] = target: RON2 (Toxoplasma gondii (endogenous in RH hxgprt- tachyzoites)) (UniProt B6KV60); experiment: co-IP; 1% NP40 and 1 M NaCl; affinity chromatography with either of the specific anti-RONs; data not shown
[6] = target: RON2 (Toxoplasma gondii (endogenous in RH hxgprt- tachyzoites)) (UniProt B6KV60); experiment: co-IP; intracellular parasites labelled with [35S]-methionine/cysteine for 15 min, harvested or chased 1 h, with or without BFA (5 µg/ml); lysis in 1% NP40; IP; SDS-PAGE and autoradiography
[7] = target: RON2 (Toxoplasma gondii (endogenous in RH hxgprt- tachyzoites)) (UniProt B6KV60); experiment: co-IP; tachyzoites lysed in 1% NP40; IP or immuno-affinity column with anti-RON sera; Western blot in reduced condition
[8] = target: proRON2 (Toxoplasma gondii (endogenous in RH hxgprt- tachyzoites)) (UniProt B6KV60); experiment: co-IP; pulse-chase labelling, 1% NP40 lysis, IP with anti-RON2n, anti-RON5 or anti-RON8; data not shown

Substance: RON2 (from UniProt B6KV60 25-1479)
- binding [1]: binds
- binding [2]: binds
- binding [3]: binds

Substance: proRON2 (from UniProt B6KV60 25-1479)
- binding [4]: binds

Substance: RON4 (from UniProt B6KJ32 27-984)
- binding [5]: binds
- binding [6]: binds
- binding [7]: binds

Substance: proRON4 (from UniProt B6KJ32 27-984)
- binding [8]: binds
